Values from PubChem BioAssay AID602196 (INSERM, 2012)
Aim: 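Knock-downs that protect lung cancer cells from cisplatin or sensitise them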. System: human A549 lung cancer cells. Knock-down reagent: siRNA pair against human genes. Duration: 48 h transfection before cisplatin; time from cisplatin to read-out not stated. Conditions: cisplatin at a dose killing half of control-siRNA cells; exact dose and duration not given. Detection: 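Shift in cisplatin death relative to control siRNA, from -50 (all cells die) to +50 (no cells die); siRNAs harmful on their own scored 0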. Reading the numbers: two-siRNA summed score (-2 to +2): higher = both siRNAs protect from cisplatin killing; -2 means both sensitise. Hit rule: 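Each siRNA scores 0 if harmful alone by LDH or WST-1, otherwise +1 if it reduces and -1 if it increases cisplatin killing; a gene is active when both siRNAs agree (sum +2 or -2)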. Calls: active = both siRNAs shift cisplatin killing the same way; inactive = no consistent shift, or siRNA harmful alone.
This is a random part of about 23,000 deposited reagents. 455 of them (2%) were called active. 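Active includes both protection and sensitisation; some change values fall well beyond the stated -50 to +50 range.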 Reagents against one gene are numbered here. Not all columns of the deposit are shown. Not given: the amount of reagent.

Target gene	reagent no.	two-siRNA summed score (-2 to +2)	Outcome
RBMS3	1	1	inactive
ERLIN2	1	1	inactive
APOO	1	0	inactive
NOC2L	1	0	inactive
EXT1	1	0	inactive
LOC440596	1	0	inactive
TFAP2E	1	0	inactive
MYCN	1	1	inactive
POF1B	1	0	inactive
LOC440088	1	0	inactive
PP13004 (retired record)	1	0	inactive
MEGF8	1	0	inactive
MEGF8	2	0	inactive
FBLN1	1	1	inactive
LOC442569	1	0	inactive
CSDC2	1	0	inactive
LOC401087	1	0	inactive
KRTAP12-4	1	2	active
PAK3	1	0	inactive
NDEL1	1	0	inactive
CYBA	1	0	inactive
IL5RA	1	0	inactive
DUSP3	1	1	inactive
ARID3A	1	0	inactive
GPAT2	1	0	inactive
LOC441016	1	0	inactive
PPBP	1	0	inactive
UBE2V2	1	0	inactive
ALMS1	1	1	inactive
LOC387826	1	0	inactive
LOC388648	1	0	inactive
LOC440924	1	0	inactive
OR8J1	1	0	inactive
MRPL10	1	1	inactive
ANXA11	1	0	inactive
LOC440938	1	0	inactive
RAB13	1	0	inactive
RGS19	1	0	inactive
PPP1R3A	1	1	inactive
FLJ43950	1	1	inactive
LOC441230	1	0	inactive
SRCAP	1	0	inactive
KCNS1	1	0	inactive
PRR14L	1	1	inactive
STK16	1	1	inactive
LOC442456	1	0	inactive
RXRB	1	1	inactive
UBC	1	-1	inactive
ATG3	1	1	inactive
TBC1D32	1	1	inactive
NGEF	1	-1	inactive
PIGC	1	0	inactive
NCALD	1	0	inactive
LOC388291	1	-1	inactive
LOC401506	1	0	inactive
OR4N4	1	-1	inactive
SYNGR4	1	0	inactive
ANKDD1A	1	0	inactive
PRRT1	1	0	inactive
TAF4B	1	1	inactive
LOC158345	1	0	inactive
ALDH1A1	1	0	inactive
ANXA13	1	-1	inactive
PRAMEF30P	1	0	inactive
CDK20	1	1	inactive
B3GLCT	1	0	inactive
LOC442278	1	1	inactive
ACSM2A	1	0	inactive
EIF4H	1	0	inactive
IFNGR1	1	-1	inactive
FBXW7	1	0	inactive
CLUHP3	1	0	inactive
BCL2L14	1	0	inactive

Reformatted: results already given
Target gene,reagent no.,two-siRNA summed score (-2 to +2),Outcome
PPP1R3A,1,1,inactive
FLJ43950,1,1,inactive
LOC441230,1,0,inactive
SRCAP,1,0,inactive
